Structures can show the parent of a compound that is named as a salt. The list shows a part of the results. The calls rarely recur for the same compound in another form.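 Kinases were expressed as nanoluciferase fusions in K562 cells and luminescence was read every 4 h between 2 and 18 h as percent of control, DMSO set to 100% and a positive control to 0%. A time point counts as decreased when the signal drops significantly (2 sigma). The hit call is the authors' own, does not follow from the count of time points alone, and its rule is not shown.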
What was measured:
Experiment in all cases: kinase-Nluc reporter destabilization hit call (1 = scored as downregulated) (binary); higher = compound decreases kinase abundance
Settings in all cases: K562; 2-18 h
[1] = target: ABL1 (UniProt P00519)
[2] = target: AKT1 (UniProt P31749)
[3] = target: ALK (UniProt Q9UM73)
[4] = target: ARAF (UniProt P10398)
[5] = target: AURKA (UniProt O14965)
[6] = target: AURKB (UniProt Q96GD4)
[7] = target: AURKC (UniProt Q9UQB9)
[8] = target: BLK (UniProt P51451)
[9] = target: BMX (UniProt P51813)
[10] = target: BRAF (UniProt P15056)

Chains of the proteins cited; added tags and fusions are not shown. Lines headed by an entry give the natural chain unless they say otherwise; changes in a name come on top.
UniProt P00519, whole entry: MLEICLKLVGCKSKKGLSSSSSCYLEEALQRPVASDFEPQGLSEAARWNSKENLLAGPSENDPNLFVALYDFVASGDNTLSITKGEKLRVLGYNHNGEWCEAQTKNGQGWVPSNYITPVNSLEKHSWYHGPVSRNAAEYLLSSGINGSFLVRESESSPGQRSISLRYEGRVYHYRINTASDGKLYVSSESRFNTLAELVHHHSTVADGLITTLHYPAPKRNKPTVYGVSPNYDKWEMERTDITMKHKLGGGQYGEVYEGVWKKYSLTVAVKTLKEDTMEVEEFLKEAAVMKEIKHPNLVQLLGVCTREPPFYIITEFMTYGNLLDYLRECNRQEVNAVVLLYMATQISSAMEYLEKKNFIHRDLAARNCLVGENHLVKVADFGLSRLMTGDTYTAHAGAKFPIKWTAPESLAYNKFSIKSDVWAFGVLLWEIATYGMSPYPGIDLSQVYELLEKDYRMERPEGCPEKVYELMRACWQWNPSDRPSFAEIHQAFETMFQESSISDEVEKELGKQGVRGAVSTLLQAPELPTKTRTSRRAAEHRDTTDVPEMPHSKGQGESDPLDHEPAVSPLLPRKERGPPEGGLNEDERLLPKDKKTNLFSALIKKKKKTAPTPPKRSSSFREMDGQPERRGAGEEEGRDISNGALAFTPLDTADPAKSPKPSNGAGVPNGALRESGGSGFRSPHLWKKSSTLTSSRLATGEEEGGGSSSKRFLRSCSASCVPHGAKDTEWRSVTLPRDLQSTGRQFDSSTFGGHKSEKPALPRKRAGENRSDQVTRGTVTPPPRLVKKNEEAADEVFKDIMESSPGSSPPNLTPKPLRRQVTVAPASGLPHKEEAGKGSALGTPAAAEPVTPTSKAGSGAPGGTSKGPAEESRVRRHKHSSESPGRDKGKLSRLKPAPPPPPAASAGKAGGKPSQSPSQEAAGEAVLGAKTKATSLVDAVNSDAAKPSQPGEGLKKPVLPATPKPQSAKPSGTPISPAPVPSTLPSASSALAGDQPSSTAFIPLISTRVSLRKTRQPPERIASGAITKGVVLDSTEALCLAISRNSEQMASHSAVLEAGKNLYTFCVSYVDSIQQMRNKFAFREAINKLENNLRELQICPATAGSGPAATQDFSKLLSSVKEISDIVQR
UniProt P31749: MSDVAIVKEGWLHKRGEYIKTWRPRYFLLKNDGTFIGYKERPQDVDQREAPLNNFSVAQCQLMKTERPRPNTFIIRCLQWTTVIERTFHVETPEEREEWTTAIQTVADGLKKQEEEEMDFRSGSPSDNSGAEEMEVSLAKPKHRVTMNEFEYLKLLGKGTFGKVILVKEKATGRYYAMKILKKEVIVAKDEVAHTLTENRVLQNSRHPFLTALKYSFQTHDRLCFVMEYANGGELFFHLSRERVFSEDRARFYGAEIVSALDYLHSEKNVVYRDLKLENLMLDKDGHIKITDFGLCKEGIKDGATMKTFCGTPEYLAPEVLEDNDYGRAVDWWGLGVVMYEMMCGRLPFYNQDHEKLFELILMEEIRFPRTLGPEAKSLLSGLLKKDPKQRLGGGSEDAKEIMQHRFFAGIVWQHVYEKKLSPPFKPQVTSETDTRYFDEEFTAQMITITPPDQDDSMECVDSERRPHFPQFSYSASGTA
UniProt Q9UM73: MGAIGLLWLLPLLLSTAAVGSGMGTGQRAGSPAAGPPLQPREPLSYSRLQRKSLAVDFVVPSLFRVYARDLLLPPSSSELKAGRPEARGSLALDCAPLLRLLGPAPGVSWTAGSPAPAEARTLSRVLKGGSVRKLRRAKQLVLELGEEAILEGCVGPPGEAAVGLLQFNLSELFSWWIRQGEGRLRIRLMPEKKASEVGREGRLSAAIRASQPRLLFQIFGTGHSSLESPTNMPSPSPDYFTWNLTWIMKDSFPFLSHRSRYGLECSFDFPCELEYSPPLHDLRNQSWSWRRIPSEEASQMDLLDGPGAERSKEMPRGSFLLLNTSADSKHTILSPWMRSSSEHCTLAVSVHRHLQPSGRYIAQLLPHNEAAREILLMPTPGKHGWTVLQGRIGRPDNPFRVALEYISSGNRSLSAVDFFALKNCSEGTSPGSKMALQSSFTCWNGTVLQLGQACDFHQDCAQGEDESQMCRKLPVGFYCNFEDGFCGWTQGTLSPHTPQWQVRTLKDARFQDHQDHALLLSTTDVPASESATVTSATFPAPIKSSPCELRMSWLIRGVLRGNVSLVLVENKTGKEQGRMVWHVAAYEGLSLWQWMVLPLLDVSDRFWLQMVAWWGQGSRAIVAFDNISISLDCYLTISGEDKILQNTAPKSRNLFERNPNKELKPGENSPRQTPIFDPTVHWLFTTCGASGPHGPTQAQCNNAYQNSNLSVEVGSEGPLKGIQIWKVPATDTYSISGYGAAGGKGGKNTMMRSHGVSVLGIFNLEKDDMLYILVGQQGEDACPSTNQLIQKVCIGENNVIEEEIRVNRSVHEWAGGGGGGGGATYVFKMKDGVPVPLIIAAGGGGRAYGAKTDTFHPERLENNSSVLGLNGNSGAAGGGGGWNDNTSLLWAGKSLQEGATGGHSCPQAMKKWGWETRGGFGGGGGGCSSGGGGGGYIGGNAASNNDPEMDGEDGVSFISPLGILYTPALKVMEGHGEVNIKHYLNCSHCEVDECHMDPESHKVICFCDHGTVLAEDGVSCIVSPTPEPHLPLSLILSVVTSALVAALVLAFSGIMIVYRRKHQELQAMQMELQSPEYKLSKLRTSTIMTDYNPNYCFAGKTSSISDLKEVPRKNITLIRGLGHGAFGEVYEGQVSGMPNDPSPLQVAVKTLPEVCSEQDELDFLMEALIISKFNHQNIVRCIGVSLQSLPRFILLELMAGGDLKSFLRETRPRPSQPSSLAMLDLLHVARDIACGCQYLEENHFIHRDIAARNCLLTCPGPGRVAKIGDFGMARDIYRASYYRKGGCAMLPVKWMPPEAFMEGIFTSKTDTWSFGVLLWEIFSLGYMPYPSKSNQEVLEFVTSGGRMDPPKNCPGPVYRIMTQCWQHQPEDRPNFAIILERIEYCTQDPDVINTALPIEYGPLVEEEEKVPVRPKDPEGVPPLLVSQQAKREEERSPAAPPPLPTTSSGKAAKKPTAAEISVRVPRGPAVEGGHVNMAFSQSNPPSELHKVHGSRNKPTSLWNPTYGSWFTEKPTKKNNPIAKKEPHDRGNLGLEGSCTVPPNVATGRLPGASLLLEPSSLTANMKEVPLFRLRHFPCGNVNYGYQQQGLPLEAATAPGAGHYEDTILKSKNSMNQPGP
UniProt P10398: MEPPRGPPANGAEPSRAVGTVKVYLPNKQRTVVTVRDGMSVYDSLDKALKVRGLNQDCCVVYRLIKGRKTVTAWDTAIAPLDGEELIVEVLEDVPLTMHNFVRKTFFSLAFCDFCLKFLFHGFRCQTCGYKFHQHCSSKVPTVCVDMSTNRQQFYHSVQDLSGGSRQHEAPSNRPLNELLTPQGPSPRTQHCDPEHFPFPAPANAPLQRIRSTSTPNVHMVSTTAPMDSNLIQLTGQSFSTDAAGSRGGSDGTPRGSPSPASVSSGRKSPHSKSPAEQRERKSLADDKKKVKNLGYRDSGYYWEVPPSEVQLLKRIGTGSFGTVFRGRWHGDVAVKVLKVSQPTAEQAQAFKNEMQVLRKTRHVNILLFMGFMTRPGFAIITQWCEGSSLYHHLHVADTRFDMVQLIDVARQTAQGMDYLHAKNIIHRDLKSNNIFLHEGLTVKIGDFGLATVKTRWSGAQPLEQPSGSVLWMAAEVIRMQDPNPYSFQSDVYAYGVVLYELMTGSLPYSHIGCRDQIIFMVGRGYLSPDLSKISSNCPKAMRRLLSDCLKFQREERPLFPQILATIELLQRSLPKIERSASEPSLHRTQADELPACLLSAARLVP
UniProt Q96GD4, whole entry: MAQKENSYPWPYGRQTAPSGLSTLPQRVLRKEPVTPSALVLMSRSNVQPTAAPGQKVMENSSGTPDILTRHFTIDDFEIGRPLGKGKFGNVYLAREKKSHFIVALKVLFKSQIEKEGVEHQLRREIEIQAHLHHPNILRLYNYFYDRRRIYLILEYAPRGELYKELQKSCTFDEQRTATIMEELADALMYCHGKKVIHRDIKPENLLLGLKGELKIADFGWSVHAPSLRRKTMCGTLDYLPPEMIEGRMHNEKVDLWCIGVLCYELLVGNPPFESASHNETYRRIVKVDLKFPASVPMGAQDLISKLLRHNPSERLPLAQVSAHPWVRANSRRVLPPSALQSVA
UniProt Q9UQB9: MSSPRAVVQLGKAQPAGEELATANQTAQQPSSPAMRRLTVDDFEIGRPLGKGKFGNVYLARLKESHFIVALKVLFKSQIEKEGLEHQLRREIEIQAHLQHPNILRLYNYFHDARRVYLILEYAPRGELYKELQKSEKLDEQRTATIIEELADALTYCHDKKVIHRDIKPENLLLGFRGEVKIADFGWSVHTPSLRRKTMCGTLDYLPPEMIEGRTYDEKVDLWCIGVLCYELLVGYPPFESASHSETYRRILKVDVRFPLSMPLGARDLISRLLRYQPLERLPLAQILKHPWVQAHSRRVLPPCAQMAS
UniProt P51451: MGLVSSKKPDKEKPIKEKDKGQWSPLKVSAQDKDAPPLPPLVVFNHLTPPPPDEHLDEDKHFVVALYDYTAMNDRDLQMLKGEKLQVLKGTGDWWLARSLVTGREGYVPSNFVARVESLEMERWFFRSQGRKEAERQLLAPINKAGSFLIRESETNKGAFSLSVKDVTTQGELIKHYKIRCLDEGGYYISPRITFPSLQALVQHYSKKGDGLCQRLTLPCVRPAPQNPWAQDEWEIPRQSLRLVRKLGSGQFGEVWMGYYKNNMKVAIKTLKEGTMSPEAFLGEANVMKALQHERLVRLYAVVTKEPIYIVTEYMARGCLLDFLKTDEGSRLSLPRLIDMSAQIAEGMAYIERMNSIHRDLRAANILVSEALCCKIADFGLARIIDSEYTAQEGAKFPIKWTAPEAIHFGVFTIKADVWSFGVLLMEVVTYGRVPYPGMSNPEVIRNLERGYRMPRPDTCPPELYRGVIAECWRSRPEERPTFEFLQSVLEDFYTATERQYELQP
UniProt P51813: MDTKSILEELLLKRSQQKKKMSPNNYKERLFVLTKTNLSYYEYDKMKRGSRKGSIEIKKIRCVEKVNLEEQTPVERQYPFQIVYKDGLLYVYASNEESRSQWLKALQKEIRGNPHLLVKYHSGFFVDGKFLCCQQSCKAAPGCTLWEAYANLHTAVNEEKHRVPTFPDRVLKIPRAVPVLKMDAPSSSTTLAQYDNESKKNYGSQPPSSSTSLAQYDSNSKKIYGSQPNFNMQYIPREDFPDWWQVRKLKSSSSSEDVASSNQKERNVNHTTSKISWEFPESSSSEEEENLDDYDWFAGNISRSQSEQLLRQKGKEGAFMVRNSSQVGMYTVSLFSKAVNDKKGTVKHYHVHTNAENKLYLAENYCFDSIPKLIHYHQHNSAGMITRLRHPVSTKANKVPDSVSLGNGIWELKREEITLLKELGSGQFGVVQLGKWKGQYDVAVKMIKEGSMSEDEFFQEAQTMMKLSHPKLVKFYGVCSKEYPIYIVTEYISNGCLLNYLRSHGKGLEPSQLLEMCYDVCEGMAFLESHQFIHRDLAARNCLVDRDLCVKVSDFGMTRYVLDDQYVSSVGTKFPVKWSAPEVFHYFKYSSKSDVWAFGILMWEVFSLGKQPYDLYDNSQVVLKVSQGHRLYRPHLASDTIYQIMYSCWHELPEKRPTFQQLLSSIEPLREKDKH
UniProt P15056, whole entry, looked up: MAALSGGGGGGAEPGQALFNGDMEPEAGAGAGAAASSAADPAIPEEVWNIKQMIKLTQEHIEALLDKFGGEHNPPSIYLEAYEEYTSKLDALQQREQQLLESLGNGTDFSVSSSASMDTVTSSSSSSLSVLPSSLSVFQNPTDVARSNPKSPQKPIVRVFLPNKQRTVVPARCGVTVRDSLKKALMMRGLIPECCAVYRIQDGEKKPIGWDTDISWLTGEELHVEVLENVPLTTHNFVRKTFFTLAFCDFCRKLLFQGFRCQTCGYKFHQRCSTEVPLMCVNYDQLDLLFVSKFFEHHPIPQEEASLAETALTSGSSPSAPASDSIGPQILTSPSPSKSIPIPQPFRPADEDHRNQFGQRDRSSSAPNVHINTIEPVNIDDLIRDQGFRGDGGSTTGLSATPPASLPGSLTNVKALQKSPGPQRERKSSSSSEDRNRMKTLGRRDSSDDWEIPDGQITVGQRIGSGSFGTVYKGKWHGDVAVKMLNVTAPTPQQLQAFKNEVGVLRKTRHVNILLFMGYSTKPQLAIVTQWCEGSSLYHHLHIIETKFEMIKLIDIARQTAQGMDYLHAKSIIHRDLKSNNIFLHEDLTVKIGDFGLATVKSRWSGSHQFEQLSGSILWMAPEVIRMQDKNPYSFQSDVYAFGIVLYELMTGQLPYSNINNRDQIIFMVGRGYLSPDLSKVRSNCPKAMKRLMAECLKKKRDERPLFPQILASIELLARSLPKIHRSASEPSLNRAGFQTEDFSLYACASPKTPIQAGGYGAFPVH

Structure (SMILES)	kinase-Nluc reporter destabilization hit call [1]	kinase-Nluc reporter destabilization hit call [2]	kinase-Nluc reporter destabilization hit call [3]	kinase-Nluc reporter destabilization hit call [4]	kinase-Nluc reporter destabilization hit call [5]	kinase-Nluc reporter destabilization hit call [6]	kinase-Nluc reporter destabilization hit call [7]	kinase-Nluc reporter destabilization hit call [8]	kinase-Nluc reporter destabilization hit call [9]	kinase-Nluc reporter destabilization hit call [10]
CC(=O)Oc1ccc(/C=C/c2cc(OC(C)=O)cc(OC(C)=O)c2)cc1 [Triacetylresveratrol] (10 µM)	inactive: 0	inactive: 0	inactive: 0	inactive: 0	inactive: 0	inactive: 0	inactive: 0	inactive: 0	inactive: 0	inactive: 0
Cn1cc(C2=C(c3cn(C4CCN(Cc5ccccn5)CC4)c4ccccc34)C(=O)NC2=O)c2ccccc21 [Enzastaurin] (10 µM)	inactive: 0	inactive: 0	inactive: 0	inactive: 0	inactive: 0	inactive: 0	inactive: 0	inactive: 0	inactive: 0	inactive: 0
CCCCCCCCCCCCCCCCOC[C@H](COP(=O)([O-])OCC[N+](C)(C)C)OC(C)=O (10 µM)	inactive: 0	inactive: 0	inactive: 0	inactive: 0	inactive: 0	inactive: 0	inactive: 0	inactive: 0	inactive: 0	inactive: 0
CN(C)C(=O)c1ccc(Cn2c(C(=O)O)cc3c(Br)cc(Sc4ccc(Cl)c(Cl)c4)cc32)cc1 [Rheb inhibitor NR1] (10 µM)	inactive: 0	inactive: 0	inactive: 0	inactive: 0	inactive: 0	inactive: 0	inactive: 0	inactive: 0	inactive: 0	inactive: 0
O=C(O)c1sc2cc(Cl)ccc2c1Cl (10 µM)	inactive: 0	inactive: 0	inactive: 0	inactive: 0	inactive: 0	inactive: 0	inactive: 0	inactive: 0	inactive: 0	inactive: 0
O=[N+]([O-])/C=C/c1ccc2c(c1)OCO2 (2.5 µM)	inactive: 0	inactive: 0	inactive: 0	inactive: 0	inactive: 0	inactive: 0	inactive: 0	inactive: 0	inactive: 0	inactive: 0
Cc1[nH]ncc1-c1cc2nc([C@H]3CC4CCN3CC4)[nH]c(=O)c2s1 [(R)-Simurosertib] (10 µM)	inactive: 0	inactive: 0	inactive: 0	inactive: 0	inactive: 0	inactive: 0	inactive: 0	inactive: 0	inactive: 0	inactive: 0
CCOC(=O)c1c(/C(C#N)=C\N)c2ccc(Cl)c(Cl)c2n1C (10 µM)	inactive: 0	inactive: 0	inactive: 0	inactive: 0	inactive: 0	inactive: 0	inactive: 0	inactive: 0	inactive: 0	inactive: 0
C=CC(=O)N[C@H]1C=C(C)c2c(-c3cnc4ccccc4c3)c3c(N)ncnc3n2C1 (10 µM)	inactive: 0	inactive: 0	inactive: 0	inactive: 0	inactive: 0	inactive: 0	inactive: 0	inactive: 0	inactive: 0	inactive: 0
COC[C@H]1OC(=O)c2coc3c2[C@@]1(C)C1=C(C3=O)[C@@H]2CCC(=O)[C@@]2(C)C[C@H]1OC(C)=O [Wortmannin] (2.5 µM)	inactive: 0	inactive: 0	inactive: 0	inactive: 0	active: 1	active: 1	inactive: 0	inactive: 0	inactive: 0	inactive: 0
Cc1ccccc1-n1c(Cn2ncc3c(N)ncnc32)nc2cccc(C)c2c1=O (10 µM)	inactive: 0	inactive: 0	inactive: 0	inactive: 0	inactive: 0	inactive: 0	inactive: 0	inactive: 0	inactive: 0	inactive: 0
O=c1[nH]c2ccccc2n1C1CCN(Cc2ccc(-c3[nH]c4cc5ncnc5cc4nc3-c3ccccc3)cc2)CC1 [AKT inhibitor VIII] (2.5 µM)	inactive: 0	inactive: 0	inactive: 0	inactive: 0	inactive: 0	inactive: 0	inactive: 0	inactive: 0	inactive: 0	inactive: 0
C[C@H](CCC(=O)O)C[C@H](C)C[C@H](C)C(=O)/C=C(\O)[C@H](C)C[C@H](C)C/C=C/[C@@H](C)[C@@H](O)[C@@H](C)[C@@H](O)C[C@@H]1CC[C@@](C)([C@H]2CC[C@@](C)([C@@H](C)O)O2)O1 [Ionomycin (calcium)] (2.5 µM)	inactive: 0	inactive: 0	inactive: 0	inactive: 0	active: 1	inactive: 0	inactive: 0	inactive: 0	inactive: 0	inactive: 0
N#CC(C#N)=Cc1ccc(O)c(O)c1 [Tyrphostin 23] (10 µM)	inactive: 0	inactive: 0	inactive: 0	inactive: 0	inactive: 0	inactive: 0	inactive: 0	inactive: 0	inactive: 0	inactive: 0
CC(C)=CC[C@@H](OC(=O)CC(C)(C)O)C1=CC(=O)c2c(O)ccc(O)c2C1=O [β-Hydroxyisovalerylshikonin] (2.5 µM)	inactive: 0	inactive: 0	inactive: 0	inactive: 0	inactive: 0	inactive: 0	inactive: 0	inactive: 0	inactive: 0	inactive: 0
C/C(O)=C(\C#N)C(=O)Nc1cc(Br)ccc1Br (10 µM)	inactive: 0	inactive: 0	inactive: 0	inactive: 0	inactive: 0	inactive: 0	inactive: 0	inactive: 0	inactive: 0	inactive: 0
Cc1n[nH]cc1-c1cc2nc([C@@H]3CC4CCN3CC4)[nH]c(=O)c2s1 [Simurosertib] (2.5 µM)	inactive: 0	inactive: 0	inactive: 0	inactive: 0	inactive: 0	inactive: 0	inactive: 0	inactive: 0	inactive: 0	inactive: 0
O=C(N[C@@H](COc1ccc2[nH]c(=O)[nH]c2c1)c1ccccc1)c1cccn(Cc2ccc(F)c(F)c2)c1=O (2.5 µM)	inactive: 0	inactive: 0	inactive: 0	inactive: 0	inactive: 0	inactive: 0	inactive: 0	inactive: 0	inactive: 0	inactive: 0
C[C@H]1CC[C@]2(NC1)O[C@H]1C[C@H]3[C@@H]4CC[C@H]5C[C@@H](O)CC[C@]5(C)[C@H]4CC[C@]3(C)[C@H]1[C@@H]2C [Tomatidine] (2 µM)	inactive: 0	inactive: 0	inactive: 0	inactive: 0	inactive: 0	inactive: 0	inactive: 0	inactive: 0	inactive: 0	inactive: 0
N#CC(C#N)=Cc1ccc([N+](=O)[O-])c(O)c1 (10 µM)	inactive: 0	inactive: 0	inactive: 0	inactive: 0	inactive: 0	inactive: 0	inactive: 0	inactive: 0	inactive: 0	inactive: 0
C[C@@H]1CC[C@H]2[C@@H](C)C(=O)O[C@@H]3O[C@@]4(C)CC[C@@H]1[C@]32OO4 [Artemisinin] (10 µM)	inactive: 0	inactive: 0	inactive: 0	inactive: 0	inactive: 0	inactive: 0	inactive: 0	inactive: 0	inactive: 0	inactive: 0
CCCS(=O)(=O)Nc1ccc(F)c(-n2cc(-c3cncnc3)c3nc(N(C)C4CCN(CC)CC4)ccc32)c1F (2 µM)	inactive: 0	inactive: 0	inactive: 0	inactive: 0	inactive: 0	inactive: 0	inactive: 0	inactive: 0	inactive: 0	inactive: 0
CC1=C[C@]23C(=O)[C@@H](C=C(CO)[C@@H](O)[C@]2(O)[C@H]1O)[C@H]1[C@@H](C[C@H]3C)C1(C)C [Ingenol] (10 µM)	inactive: 0	inactive: 0	inactive: 0	inactive: 0	inactive: 0	inactive: 0	inactive: 0	inactive: 0	inactive: 0	inactive: 0
C[S+]([O-])/C=C/CCN=C=S (stereo not given) [Sulforaphene] (10 µM)	inactive: 0	inactive: 0	inactive: 0	inactive: 0	inactive: 0	inactive: 0	inactive: 0	inactive: 0	inactive: 0	inactive: 0
Nc1ncnc2c1ncn2[C@@H]1O[C@@H]2COP(O)(=S)O[C@H]2[C@H]1O (stereo not given in full) [Sp-cAMPS (sodium salt)] (10 µM)	inactive: 0	inactive: 0	inactive: 0	inactive: 0	inactive: 0	inactive: 0	inactive: 0	inactive: 0	inactive: 0	inactive: 0
COc1ccc2c(c1)[nH]c1c(C)nccc12 [Harmine] (10 µM)	inactive: 0	inactive: 0	inactive: 0	inactive: 0	inactive: 0	inactive: 0	inactive: 0	inactive: 0	inactive: 0	inactive: 0
C=C[C@H]1CN2CC[C@]3(C(=O)Nc4ccccc43)[C@@H]2C[C@@H]1/C(=C\OC)C(=O)OC [Corynoxeine] (2 µM)	inactive: 0	inactive: 0	inactive: 0	inactive: 0	inactive: 0	inactive: 0	inactive: 0	inactive: 0	inactive: 0	inactive: 0
O=c1[nH]c2ccccc2n1C1CCN(CCCC(c2ccc(F)cc2)c2ccc(F)cc2)CC1 [Pimozide] (2.5 µM)	inactive: 0	inactive: 0	inactive: 0	inactive: 0	inactive: 0	inactive: 0	inactive: 0	inactive: 0	inactive: 0	inactive: 0

A few values from the entries so far:
Under kinase-Nluc reporter destabilization hit call [5], `C[S+]([O-])/C=C/CCN=C=S` (stereo not given) [Sulforaphene] (10 µM) reads inactive: 0
Under kinase-Nluc reporter destabilization hit call [7], `C=C[C@H]1CN2CC[C@]3(C(=O)Nc4ccccc43)[C@@H]2C[C@@H]1/C(=C\OC)C(=O)OC` [Corynoxeine] (2 µM) reads inactive: 0
